The other results are listed elsewhere or left out. Shown are side measurements of this screen, not its main read-out; they come without a call. Compounds called inactive in the main read-out are mostly missing here. Words in brackets tell the shape of the fitted curve; partial curves, single points and poor fits give uncertain potencies.
Experiment: qHTS Assay for Lipid Storage Modulators in Drosophila S3 Cells;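 for cell number change: cells counted by Cell Tracker Red CMTPX staining in the red channel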
Conditions: BODIPY lipid droplet fluorescence, 18-24 h; for cell number change: measured here: cell count max response, cells fed with added oleic acid
Outline: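 Drosophila S3 cells got compounds at several concentrations plus oleic acid (400 uM solution). Laser-scanning cytometry with 488 nm excitation read lipid droplets at 500-530 nm and cells at 575-640 nm. Percent activity was relative to 20 uM Triacsin C.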

[1] = measured here: cell number channel AC50, cells fed with added oleic acid
[2] = measured here: lipid fluorescence (Fed channel) AC50, cells fed with added oleic acid

| Compound | cell number change | AC50 [1] | AC50 [2] |
| --- | --- | --- | --- |
| O=C(c1ccccc1)c1coc2c1C(=O)c1ccccc1C2=O | -36.5% | 0.13 µM [falling, full curve] | 20.6 µM [falling, single point] |
| CC(C)CC(NS(=O)(=O)c1cccc(C(=O)O)c1)C(=O)O (stereo not drawn) | -14.2% | – | – |
| CN(C)c1ccc(-c2nn3c(-c4ccc(Cl)cc4)nnc3s2)cc1 | -10.4% | – | – |
| c1ccc2c(c1)OCCc1c-2[nH]c2ccccc12 | 21.8% | – | 29.1 µM [falling, single point] |
| COc1cc(OC)c(NC(=O)CCNC(=O)Cn2ccc3ccccc3c2=O)cc1Cl | -18.1% | – | – |
| COc1ccc(N2C(=O)CSC2c2cccc(OC)c2OC)cc1 (stereo not drawn) | 16.1% | – | 0.103 µM [falling, full curve, poor fit] |
| COc1ccc(C(=O)COC(=O)CCC(=O)Nc2ccc(C(C)=O)cc2)cc1 | 22.1% | – | – |
| O=C(Cn1nnc(-c2ccccc2)n1)N/N=C/c1cc([N+](=O)[O-])c(Cl)cc1Cl | -11.2% | – | – |
| Cc1ccc(-c2csc(NC(=S)NC(=O)c3cccs3)n2)cc1 | 1.29% | – | 18.4 µM [rising, single point] |
| CCOc1ccc(N2CC(C(=O)Nc3ccncc3)CC2=O)cc1 (stereo not drawn) | 17% | – | 6.51 µM [rising, single point] |
| CCOC(=O)CN(c1ccccc1C)S(=O)(=O)c1ccc(Cl)cc1 | 42.7% | 10.3 µM [rising, partial curve] | – |
| c1ccc(-c2noc(CC3CCCCC3)n2)cc1 | -22% | – | 35.5 µM [falling, single point] |
| Cc1ccc2nc(-c3ccc(NC(=O)COC(=O)c4ccc([N+](=O)[O-])o4)cc3)sc2c1 | 36.4% | 7.31 µM [rising, partial curve, poor fit] | 4.11 µM [rising, single point] |
| O=C(CN1C(=O)C2CC=CCC2C1=O)OCC(=O)c1ccc(Cl)c([N+](=O)[O-])c1 (stereo not drawn) | -9.38% | – | 29.1 µM [falling, single point] |
| O=C(NC(=S)Nc1ccccc1N1CCCCC1)c1ccc(F)cc1 | 28.7% | – | 29.1 µM [rising, single point] |
| CS(=O)(=O)N1CCC(NC(=O)Nc2ccc(OC(F)(F)F)cc2)CC1 | -11.9% | 0.651 µM [rising, partial curve] | 0.092 µM [rising, partial curve] |
| O=C(Cc1ccccc1)Nc1ccc2[nH]ncc2c1 | 5.52% | – | 1.64 µM [rising, partial curve] |
| COc1ccccc1CN1CCNC(=O)C1CC(=O)N(C)Cc1nc(C)cs1 (stereo not drawn) | 5.94% | – | – |

Some of the entries so far, bar-delimited:
Compound | cell number change | AC50 [1] | AC50 [2]
O=C(Cn1nnc(-c2ccccc2)n1)N/N=C/c1cc([N+](=O)[O-])c(Cl)cc1Cl | -11.2% | – | –
Cc1ccc2nc(-c3ccc(NC(=O)COC(=O)c4ccc([N+](=O)[O-])o4)cc3)sc2c1 | 36.4% | 7.31 µM [rising, partial curve, poor fit] | 4.11 µM [rising, single point]

Reference: PubChem BioAssay AID2685 (National Center for Advancing Translational Sciences (NCATS), 2010)
